Laboratory results as given in PMC13156314.

Target: USP18-Flag truncation mutant: ubiquitin carboxyl-terminal hydrolase (UCH) domain (human)
Experiment: co-IP; tagged bait (anti-Flag or anti-Myc) from transfected SUNE1 or HEK293T lysates; co-transfected tagged or endogenous partner found by western blot

B1: TRIM29 (endogenous) (protein, UniProt Q14134 1-588)
chain: MEAADASRSNGSSPEARDARSPSGPSGSLENGTKADGKDAKTTNGHGGEAAEGKSLGSALKPGEGRSALFAGNEWRRPIIQFVESGDDKNSNYFSMDSMEGKRSPYAGLQLGAAKKPPVTFAEKGELRKSIFSESRKPTVSIMEPGETRRNSYPRADTGLFSRSKSGSEEVLCDSCIGNKQKAVKSCLVCQASFCELHLKPHLEGAAFRDHQLLEPIRDFEARKCPVHGKTMELFCQTDQTCICYLCMFQEHKNHSTVTVEEAKAEKETELSLQKEQLQLKIIEIEDEAEKWQKEKDRIKSFTTNEKAILEQNFRDLVRDLEKQKEEVRAALEQREQDAVDQVKVIMDALDERAKVLHEDKQTREQLHSISDSVLFLQEFGALMSNYSLPPPLPTYHVLLEGEGLGQSLGNFKDDLLNVCMRHVEKMCKADLSRNFIERNHMENGGDHRYVNNYTNSFGGEWSAPDTMKRYSMYLTPKGGVRTSYQPSSPGRFTKETTQKNFNNLYGTKGNYTSRVWEYSSSIQNSDNDLPVVQGSSSFSLKGYPSLMRSQSPKAQPQTWKSGKQTMLSHYRPFYVNKGNGIGSNEAP
In the case of B1, the binding is reported as “binds”.

No constants are given. Whether binding was seen depends on the method and setting. In cells and extracts the contact can be indirect. Binding calls can cover weak binding; strength is not graded here.
